IC50 data for one molecule are collected here from US8735415B2, “Acid addition salts of (3,5-Bis trifluoromethyl)-N-[4-methyl-3-(4-pyridin-3yl-pyrimidin-2ylamino)-phenyl]-benzamide” (Natco Pharma Limited, priority 2004, dated 2014).

Test [1] has as its system T315I cell line, chronic myelogenous leukemia (CML) mutant. The experiment in a line: Activity in cell culture, T315I cell proliferation. The test is classed as cell-based. Conditions: 72 h, 0.625×10^5 cells/ml, 10 μM to 0.156 μM. An excerpt:
(§1) Imatinib was used as standard.

Test [2] has as its system K562 cell line, chronic myelogenous leukemia (CML). The test can be described thus: Activity in cell culture, K562 cell proliferation. The test is classed as cell-based. Conditions: Homo sapiens, K562, 72 h, K562, 0.312×10^5 cells/ml, 10 μM to 0.156 μM.
Text: as §1

The structures appear in SMILES notation.

Regarding `Cc1ccc(NC(=O)c2ccc(CN3CCN(C)CC3)cc2)cc1Nc1nccc(-c2cccnc2)n1` [Imatinib, reference compound], the figures for the IC50 in test [1] and in test [2] were 448 nM and 407 nM, respectively.
